The text below walks through data of patent US20060239968A1 (University of Texas, published 2006).

This test addresses T1, prohibitin (B cell receptor associated protein) (mouse).
T1 sequence (P67778 2-272, looked up): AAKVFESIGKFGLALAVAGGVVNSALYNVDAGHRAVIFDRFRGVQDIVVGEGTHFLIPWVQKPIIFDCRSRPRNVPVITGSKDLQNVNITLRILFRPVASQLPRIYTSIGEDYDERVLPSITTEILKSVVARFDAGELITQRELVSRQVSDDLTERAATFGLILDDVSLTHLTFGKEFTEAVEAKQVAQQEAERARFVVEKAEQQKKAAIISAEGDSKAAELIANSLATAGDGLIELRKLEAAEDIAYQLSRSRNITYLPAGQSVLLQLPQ
Put plainly: immunoprecipitation from mouse adipose tissue extract, SDS-PAGE.

Results are given in words; binding and its absence hold for the method and conditions named. A result given as binding can be weak or reduced; the word gives no strength.

For the molecule CARACKLAKLAKKLAKLAK (cyclized using the terminal cysteines) [CARAC (SEQ ID NO:71) conjugated to (KLAKLAK)2 (SEQ ID NO:1)], the binding entry was “binds”.
